# Screening data

Data taken from PubChem BioAssay AID1159506, deposited by NCATS (2015).

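Luminescence from an EWS-FLI1 target-promoter (NR0B1) reporter, set against a CMV-promoter reporter, two days after silencing single genes in TC32 Ewing sarcoma cells.
Each siRNA was applied at 20 nM.
A z-score of the log NR0B1-over-CMV signal, less the median of siRNAs with the same seed; more negative means a stronger specific loss of the NR0B1 reporter.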

This is part of the screen; most of the strongest results are not listed here.
Sequences are the guide (antisense) strand, without overhang.

strand: UUUUGGAUGAUCUACUACU
target gene: OSTN
seed-corrected z-score: 2.132

strand: UAUGUCCUUAGACCUCAGC
target gene: ARHGAP30
seed-corrected z-score: -0.0182

strand: UCUUCUUCACGCUUCUUCU
target gene: DDX12P
seed-corrected z-score: 0.09914

strand: UUGCGAAACAGCUCCUUCC
target gene: INVS
seed-corrected z-score: 0.1089

strand: UUGGUAGAUGAGUCGCACC
target gene: TMUB1
seed-corrected z-score: 1.239

strand: UUGAGAUCAAUGUCAGUGG
target gene: CIC
seed-corrected z-score: -0.2169

strand: AAAGAUCUCUCUGUAAGGC
target gene: TSNAXIP1
seed-corrected z-score: -0.7771

strand: UAAGGUUUCAGAUGUCUUC
target gene: TPD52
seed-corrected z-score: 1.075

strand: UAUGUAGUUAUACCUGUUG
target gene: CNDP2
seed-corrected z-score: -0.3069

strand: UAAUGGGAUCUAGAGAUGC
target gene: HLX
seed-corrected z-score: -0.2395

strand: UUUCCAACAUAUUUGACUG
target gene: PTCD2
seed-corrected z-score: 1.369

strand: UUUGCUCUAGUAUUCCACG
target gene: ACTL6A
seed-corrected z-score: -0.1369

strand: UAGAUCCAUAGCUUGCUCG
target gene: TSC22D1
seed-corrected z-score: 0.2284

strand: AUUCGAAUCCAAACUACUC
target gene: DENND4C
seed-corrected z-score: 0.4658

strand: UUGUUGGUGAAAUCAAAGC
target gene: GCM2
seed-corrected z-score: 0.2106

strand: UUUCCAGUAGAAGUAGUAC
target gene: TNFAIP6
seed-corrected z-score: -0.4784

strand: AAACCAACAGCUUACAUGG
target gene: ZNF343
seed-corrected z-score: -0.2955

strand: UUCAUGGUCAGCAAAUCGC
target gene: C11orf49
seed-corrected z-score: 0.6032

strand: AAAAUGCCUCCGCUUAUGU
target gene: CD52
seed-corrected z-score: 0.7054

strand: UCAACCUUCAGCGAGAUGU
target gene: TEKT2
seed-corrected z-score: -0.1137

strand: UUUUUCUCAAUCGCCUUGC
target gene: GNAO1
seed-corrected z-score: 1.071

strand: AAAUUCAAAGCUUCAACAG
target gene: GADD45G
seed-corrected z-score: 1.052

strand: UGCUUUAGUAGAUUCAUGG
target gene: QARS
seed-corrected z-score: -1.837

strand: UUCUGGAUCAGAGCUAUGA
target gene: ARHGAP23
seed-corrected z-score: -0.1106

strand: AAUGAUUCCAGCUCGAGCC
target gene: NPEPPS
seed-corrected z-score: 0.02884

strand: UCAUAUUCAAAGGUCAAGC
target gene: CRY2
seed-corrected z-score: -0.63

strand: ACGAAUAUAAUCCUCUUCC
target gene: RNASEH2B
seed-corrected z-score: 0.235

strand: UACUUAACAGCUGAGGAUC
target gene: DCLK2
seed-corrected z-score: 0.6327

strand: AUUGUGGUGAGGGAUAUUC
target gene: VSTM5
seed-corrected z-score: -1.947

strand: UACUCCUCUCGGUACGUCU
target gene: PLA2G2F
seed-corrected z-score: -0.05942

strand: UUCUUUAGCGGGAUGGUGU
target gene: C10orf128
seed-corrected z-score: 0.6964

strand: AAGUCUGCUAUCUCCAUCC
target gene: C12orf66
seed-corrected z-score: -0.9572

strand: UUGAUUUCGGUGGACUUCG
target gene: SET
seed-corrected z-score: -0.2775

strand: AUUGAUCCAAUCGUCUUCC
target gene: ADGRE4P
seed-corrected z-score: -0.7009

strand: UAGUUGAUAAAGCCCUGCC
target gene: MRPL10
seed-corrected z-score: -0.2216

strand: UCGUGUAUCCAUUUCCACC
target gene: TGFB2
seed-corrected z-score: 0.2912

strand: UCAAUCACCACUUCAGUCC
target gene: CAPN6
seed-corrected z-score: -0.1821

strand: UUAGCGUAGAUGGUAUUUC
target gene: FBXO10
seed-corrected z-score: 0.09695

strand: AAAUCAACUGGAUCAAUGG
target gene: TULP3
seed-corrected z-score: 0.4279

strand: UUGUAGACGGGAACAGCUG
target gene: ZDHHC8
seed-corrected z-score: 0.04704

strand: UGUAAGUCCUGGGUUCUCC
target gene: ZSCAN5CP
seed-corrected z-score: 0.9342

strand: AAAGCAGUACUUGCAGUAG
target gene: B9D1
seed-corrected z-score: 0.6938

The first 3 entries again:

- UUUUGGAUGAUCUACUACU against OSTN : seed-corrected z-score 2.132
- UAUGUCCUUAGACCUCAGC against ARHGAP30 : seed-corrected z-score -0.0182
- UCUUCUUCACGCUUCUUCU against DDX12P : seed-corrected z-score 0.09914